The assay concerns the target GST-C9ORF72 (UniProt Q96LT7). The assay is described as follows: pull-down; recombinant p62 pre-cleared with GST and glutathione-agarose, then incubated with glutathione-agarose beads and 0.25 ug GST or GST-C9ORF72, 1 h, 4 C, buffer A (20 mM HEPES pH 7.9, 150 mM NaCl, 0.5 mM EDTA, 1 mM DTT, 10% glycerol, 0.1% triton-X-100); both purified.

Amino acid sequences for entries named in this document (tags omitted). A change or cut given only in a name is not applied to a line headed by its entry.
UniProt Q96LT7: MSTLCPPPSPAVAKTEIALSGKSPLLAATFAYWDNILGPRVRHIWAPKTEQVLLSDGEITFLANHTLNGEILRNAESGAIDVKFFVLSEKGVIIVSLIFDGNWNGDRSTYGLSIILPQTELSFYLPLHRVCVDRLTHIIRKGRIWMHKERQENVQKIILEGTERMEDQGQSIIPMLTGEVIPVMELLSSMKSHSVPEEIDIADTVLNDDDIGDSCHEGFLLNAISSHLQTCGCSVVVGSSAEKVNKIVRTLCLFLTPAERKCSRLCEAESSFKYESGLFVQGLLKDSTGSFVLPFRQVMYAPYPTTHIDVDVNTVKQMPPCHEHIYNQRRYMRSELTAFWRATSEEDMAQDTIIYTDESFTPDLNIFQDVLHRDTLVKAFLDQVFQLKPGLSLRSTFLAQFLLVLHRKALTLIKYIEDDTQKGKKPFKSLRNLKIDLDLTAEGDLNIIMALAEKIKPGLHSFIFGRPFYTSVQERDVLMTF

These are yes or no findings as the source states them, for the method shown. Binding can be weak; no strength is given.

As for “recombinant p62 (from UniProt Q13501 1-440)”, the binding result was “binds”.

These data come from article PMC6052026.
